Measurements as given in the supplement of paper PMC11732987, “Enantioselective OTUD7B fragment discovery through chemoproteomics screening and high-throughput optimisation” (Communications Chemistry, 2025).
The list shows a part of the results. The data scatter; read single values as rough.

The chains behind the UniProt entries cited, without tags or fusion partners. Where a name states a change or a piece, a line headed by the entry shows the natural chain unless it says otherwise. Residues count along the entry.
UniProt Q5UIP0, 2120-2147: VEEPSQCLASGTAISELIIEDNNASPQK
UniProt P35251, 658-681: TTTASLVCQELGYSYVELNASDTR
UniProt P35251, 101-120: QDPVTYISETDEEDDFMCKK
UniProt Q9P0K7: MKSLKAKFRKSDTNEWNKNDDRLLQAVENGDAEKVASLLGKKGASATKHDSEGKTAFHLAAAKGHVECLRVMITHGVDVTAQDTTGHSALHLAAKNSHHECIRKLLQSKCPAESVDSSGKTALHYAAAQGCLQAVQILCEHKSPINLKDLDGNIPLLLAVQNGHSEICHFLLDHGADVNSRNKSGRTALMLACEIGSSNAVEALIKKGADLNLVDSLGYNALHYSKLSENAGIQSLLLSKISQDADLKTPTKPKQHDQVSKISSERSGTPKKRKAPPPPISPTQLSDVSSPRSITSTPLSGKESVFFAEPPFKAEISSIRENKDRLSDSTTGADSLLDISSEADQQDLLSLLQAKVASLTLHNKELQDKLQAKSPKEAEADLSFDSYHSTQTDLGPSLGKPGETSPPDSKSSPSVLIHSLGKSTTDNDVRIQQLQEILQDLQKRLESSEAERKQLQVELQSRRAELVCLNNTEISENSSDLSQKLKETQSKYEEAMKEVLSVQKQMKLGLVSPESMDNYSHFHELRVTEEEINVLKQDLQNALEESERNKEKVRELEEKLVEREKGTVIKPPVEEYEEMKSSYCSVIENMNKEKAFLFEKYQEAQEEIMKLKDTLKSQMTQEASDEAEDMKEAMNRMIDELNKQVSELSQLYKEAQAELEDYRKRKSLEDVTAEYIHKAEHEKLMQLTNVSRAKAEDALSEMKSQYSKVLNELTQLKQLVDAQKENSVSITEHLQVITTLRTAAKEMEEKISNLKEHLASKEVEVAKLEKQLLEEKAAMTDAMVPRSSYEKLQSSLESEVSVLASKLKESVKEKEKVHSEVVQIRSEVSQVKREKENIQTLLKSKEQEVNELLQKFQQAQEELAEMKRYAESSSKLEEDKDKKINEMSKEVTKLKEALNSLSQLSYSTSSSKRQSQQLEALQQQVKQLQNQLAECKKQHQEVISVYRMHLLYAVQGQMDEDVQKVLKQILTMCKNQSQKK
UniProt Q8TDY2, whole entry, looked up: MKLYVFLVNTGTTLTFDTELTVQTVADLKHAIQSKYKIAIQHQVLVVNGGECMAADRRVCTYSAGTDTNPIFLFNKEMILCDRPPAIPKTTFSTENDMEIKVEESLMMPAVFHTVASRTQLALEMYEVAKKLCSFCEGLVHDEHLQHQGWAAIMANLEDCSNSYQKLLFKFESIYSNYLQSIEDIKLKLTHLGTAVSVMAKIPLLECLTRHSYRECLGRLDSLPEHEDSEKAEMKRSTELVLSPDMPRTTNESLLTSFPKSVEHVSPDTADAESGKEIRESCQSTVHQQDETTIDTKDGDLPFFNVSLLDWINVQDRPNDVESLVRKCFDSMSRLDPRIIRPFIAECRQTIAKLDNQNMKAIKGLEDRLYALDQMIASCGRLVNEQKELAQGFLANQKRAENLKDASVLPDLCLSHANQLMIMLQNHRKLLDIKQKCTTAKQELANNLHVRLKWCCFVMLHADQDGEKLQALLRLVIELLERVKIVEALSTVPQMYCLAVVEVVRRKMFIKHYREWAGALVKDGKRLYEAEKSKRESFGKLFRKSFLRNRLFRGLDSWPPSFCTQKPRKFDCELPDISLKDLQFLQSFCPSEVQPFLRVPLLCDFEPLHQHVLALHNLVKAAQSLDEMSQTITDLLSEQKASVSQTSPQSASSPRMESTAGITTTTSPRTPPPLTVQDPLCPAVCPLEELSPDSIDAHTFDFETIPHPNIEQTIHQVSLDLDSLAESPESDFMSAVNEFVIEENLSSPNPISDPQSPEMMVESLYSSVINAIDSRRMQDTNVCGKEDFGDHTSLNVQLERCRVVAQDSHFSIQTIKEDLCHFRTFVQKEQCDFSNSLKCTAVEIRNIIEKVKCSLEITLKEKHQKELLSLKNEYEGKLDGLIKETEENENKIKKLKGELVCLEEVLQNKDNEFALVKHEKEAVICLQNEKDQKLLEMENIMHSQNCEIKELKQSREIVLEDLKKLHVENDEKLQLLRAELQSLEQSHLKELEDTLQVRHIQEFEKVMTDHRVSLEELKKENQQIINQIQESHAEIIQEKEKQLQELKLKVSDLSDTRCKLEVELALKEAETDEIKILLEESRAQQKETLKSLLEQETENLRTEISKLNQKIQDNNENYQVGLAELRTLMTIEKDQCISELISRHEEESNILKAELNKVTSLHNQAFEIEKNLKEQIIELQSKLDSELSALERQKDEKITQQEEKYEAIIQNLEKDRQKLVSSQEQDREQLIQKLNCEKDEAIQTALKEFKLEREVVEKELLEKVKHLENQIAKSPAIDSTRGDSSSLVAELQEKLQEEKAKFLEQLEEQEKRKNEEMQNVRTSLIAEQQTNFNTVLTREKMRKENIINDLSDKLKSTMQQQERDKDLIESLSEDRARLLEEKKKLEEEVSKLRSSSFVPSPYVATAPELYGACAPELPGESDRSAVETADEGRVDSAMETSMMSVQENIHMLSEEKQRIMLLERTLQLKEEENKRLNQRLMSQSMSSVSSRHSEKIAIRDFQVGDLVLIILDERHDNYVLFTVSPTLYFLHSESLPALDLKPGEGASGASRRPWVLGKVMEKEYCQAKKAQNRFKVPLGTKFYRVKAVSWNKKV
UniProt Q5T160, 295-315: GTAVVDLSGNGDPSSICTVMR
UniProt Q8IUH3: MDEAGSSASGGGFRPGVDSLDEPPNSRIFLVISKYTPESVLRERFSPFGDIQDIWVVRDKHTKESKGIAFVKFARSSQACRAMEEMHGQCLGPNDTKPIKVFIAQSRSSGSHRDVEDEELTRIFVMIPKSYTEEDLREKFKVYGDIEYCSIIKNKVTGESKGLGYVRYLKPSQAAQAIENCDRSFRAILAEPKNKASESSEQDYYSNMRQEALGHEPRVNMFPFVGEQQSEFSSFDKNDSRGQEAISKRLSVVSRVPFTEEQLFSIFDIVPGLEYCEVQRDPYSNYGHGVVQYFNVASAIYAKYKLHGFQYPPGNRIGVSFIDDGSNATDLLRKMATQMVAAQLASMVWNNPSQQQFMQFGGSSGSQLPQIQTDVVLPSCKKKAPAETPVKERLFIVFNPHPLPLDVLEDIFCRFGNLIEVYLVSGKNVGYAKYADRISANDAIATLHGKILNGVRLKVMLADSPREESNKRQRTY
UniProt P06400: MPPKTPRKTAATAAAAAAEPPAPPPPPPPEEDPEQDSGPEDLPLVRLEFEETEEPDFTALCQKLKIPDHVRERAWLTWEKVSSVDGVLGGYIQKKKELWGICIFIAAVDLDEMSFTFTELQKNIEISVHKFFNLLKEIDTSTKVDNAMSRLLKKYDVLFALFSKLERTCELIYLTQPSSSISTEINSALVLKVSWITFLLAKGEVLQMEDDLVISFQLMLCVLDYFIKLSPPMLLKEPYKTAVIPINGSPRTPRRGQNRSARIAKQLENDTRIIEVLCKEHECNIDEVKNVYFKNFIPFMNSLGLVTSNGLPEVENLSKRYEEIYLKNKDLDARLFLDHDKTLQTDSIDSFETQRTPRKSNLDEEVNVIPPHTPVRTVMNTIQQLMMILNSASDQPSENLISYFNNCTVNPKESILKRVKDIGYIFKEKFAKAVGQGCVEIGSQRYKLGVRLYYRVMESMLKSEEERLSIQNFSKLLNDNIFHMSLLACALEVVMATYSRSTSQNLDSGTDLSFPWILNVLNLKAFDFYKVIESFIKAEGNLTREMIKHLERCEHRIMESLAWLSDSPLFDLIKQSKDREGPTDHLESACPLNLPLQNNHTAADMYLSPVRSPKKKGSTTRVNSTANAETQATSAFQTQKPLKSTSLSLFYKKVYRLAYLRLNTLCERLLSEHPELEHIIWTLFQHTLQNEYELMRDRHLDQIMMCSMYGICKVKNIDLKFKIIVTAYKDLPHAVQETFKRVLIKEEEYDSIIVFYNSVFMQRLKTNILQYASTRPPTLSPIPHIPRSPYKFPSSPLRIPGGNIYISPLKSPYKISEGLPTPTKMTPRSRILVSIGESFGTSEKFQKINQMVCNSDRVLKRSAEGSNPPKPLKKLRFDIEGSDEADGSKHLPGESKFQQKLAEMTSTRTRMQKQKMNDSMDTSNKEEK
UniProt Q99708: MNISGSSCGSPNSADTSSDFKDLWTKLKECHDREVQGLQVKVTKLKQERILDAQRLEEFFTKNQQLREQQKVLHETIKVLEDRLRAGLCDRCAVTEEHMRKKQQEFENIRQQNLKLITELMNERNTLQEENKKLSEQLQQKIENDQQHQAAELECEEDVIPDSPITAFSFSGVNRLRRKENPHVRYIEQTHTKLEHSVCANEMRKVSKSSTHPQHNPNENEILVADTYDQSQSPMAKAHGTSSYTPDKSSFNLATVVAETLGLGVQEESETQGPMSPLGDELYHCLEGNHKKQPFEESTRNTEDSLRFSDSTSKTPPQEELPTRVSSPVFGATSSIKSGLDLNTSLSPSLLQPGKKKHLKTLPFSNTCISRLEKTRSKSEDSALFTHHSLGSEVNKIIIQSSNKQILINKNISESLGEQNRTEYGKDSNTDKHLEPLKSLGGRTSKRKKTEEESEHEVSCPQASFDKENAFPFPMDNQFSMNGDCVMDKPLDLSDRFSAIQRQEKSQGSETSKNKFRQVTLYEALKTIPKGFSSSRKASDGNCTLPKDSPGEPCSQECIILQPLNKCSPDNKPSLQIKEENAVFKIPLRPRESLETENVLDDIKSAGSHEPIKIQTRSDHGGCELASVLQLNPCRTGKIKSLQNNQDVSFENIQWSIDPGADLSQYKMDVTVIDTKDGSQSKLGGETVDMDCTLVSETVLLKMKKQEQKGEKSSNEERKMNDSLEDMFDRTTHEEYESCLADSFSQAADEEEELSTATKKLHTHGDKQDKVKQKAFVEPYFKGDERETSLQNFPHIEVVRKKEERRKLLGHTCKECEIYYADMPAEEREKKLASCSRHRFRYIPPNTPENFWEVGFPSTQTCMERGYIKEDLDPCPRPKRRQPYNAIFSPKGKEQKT
UniProt O43353, 411-430: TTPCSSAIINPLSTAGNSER
UniProt O43353, whole entry, looked up: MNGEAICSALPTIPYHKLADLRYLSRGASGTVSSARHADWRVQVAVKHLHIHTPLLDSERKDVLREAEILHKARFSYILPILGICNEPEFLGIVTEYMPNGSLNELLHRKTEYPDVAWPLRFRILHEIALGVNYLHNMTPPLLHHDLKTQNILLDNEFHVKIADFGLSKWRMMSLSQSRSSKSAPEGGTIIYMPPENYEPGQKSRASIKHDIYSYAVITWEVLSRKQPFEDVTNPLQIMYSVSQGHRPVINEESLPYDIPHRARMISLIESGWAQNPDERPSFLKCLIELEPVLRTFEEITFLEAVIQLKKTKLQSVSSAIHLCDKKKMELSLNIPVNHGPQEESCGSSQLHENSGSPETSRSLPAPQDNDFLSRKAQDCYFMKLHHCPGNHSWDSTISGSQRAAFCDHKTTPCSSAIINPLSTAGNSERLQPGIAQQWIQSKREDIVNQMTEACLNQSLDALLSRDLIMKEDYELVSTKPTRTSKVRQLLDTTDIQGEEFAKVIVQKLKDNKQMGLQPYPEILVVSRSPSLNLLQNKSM
UniProt P46060: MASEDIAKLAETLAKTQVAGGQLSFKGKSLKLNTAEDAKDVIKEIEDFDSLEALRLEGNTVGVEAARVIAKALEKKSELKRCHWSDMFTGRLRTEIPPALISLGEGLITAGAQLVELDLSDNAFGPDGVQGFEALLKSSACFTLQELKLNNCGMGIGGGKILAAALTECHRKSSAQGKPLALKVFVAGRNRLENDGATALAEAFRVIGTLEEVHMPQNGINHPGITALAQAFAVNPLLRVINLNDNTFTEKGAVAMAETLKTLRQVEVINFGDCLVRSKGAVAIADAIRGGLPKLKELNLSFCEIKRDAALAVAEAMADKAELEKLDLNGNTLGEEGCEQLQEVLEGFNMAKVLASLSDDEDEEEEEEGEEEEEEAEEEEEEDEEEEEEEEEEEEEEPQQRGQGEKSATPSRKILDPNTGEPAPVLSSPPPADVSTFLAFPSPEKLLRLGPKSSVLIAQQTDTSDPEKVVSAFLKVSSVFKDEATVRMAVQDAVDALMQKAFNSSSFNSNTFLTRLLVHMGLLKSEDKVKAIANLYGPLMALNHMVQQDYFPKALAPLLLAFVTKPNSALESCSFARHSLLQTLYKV
UniProt Q86X10, 262-285: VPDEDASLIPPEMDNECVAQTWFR
UniProt Q9BWF3: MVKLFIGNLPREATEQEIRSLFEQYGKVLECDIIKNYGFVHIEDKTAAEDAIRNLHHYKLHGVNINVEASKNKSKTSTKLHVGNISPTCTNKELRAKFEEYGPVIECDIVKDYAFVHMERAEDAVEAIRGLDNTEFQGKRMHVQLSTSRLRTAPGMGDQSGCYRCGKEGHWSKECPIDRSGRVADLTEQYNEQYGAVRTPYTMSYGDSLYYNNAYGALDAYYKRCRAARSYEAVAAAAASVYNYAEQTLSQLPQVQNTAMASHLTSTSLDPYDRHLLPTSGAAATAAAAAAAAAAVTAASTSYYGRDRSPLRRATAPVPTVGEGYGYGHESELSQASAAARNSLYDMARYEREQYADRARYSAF
UniProt O94762, 456-475: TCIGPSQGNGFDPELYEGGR
UniProt O60518, 784-806: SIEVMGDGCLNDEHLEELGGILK
UniProt Q4ADV7, 408-429: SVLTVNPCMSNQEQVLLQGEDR
UniProt Q9BVS4, 481-502: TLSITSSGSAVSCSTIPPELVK

Tests used:
[1] = compound: ClCC(=O)N[C@@H]1CCCc2ccccc12; test: log2 mean competition ratio of IA-DTB cysteine labelling (DMSO/compound) (log2 ratio); higher = stronger cysteine engagement by compound; details: treatment time: 4 h, cell line lysate: HEK293T
Description: (§1)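 IA-DTB competitive cysteine chemoproteomics in HEK293T RIPA lysate. Lysates were treated with compound 29 or 30 at 50 or 200 µM for 4 h, then IA-DTB (500 µM, 1 h), trypsin-digested, NeutrAvidin-enriched and analysed by diaPASEF. Competition ratio = intensity DMSO / intensity compound (n=4 treated, n=64 DMSO); binding: mean log2 CR ≥ 1 and p ≤ 0.05 plus QC filters. Target is the cysteine site.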

[2] = compound: ClCC(=O)N[C@H]1CCCc2ccccc12; test: as above; details: treatment time: 4 h, cell line lysate: HEK293T
Description: as §1

Target | log2 mean competition ratio ([1]; 50 µM) | log2 mean competition ratio ([1]; 200 µM) | log2 mean competition ratio ([2]; 50 µM) | log2 mean competition ratio ([2]; 200 µM)
RANBP2 C3032 (UniProt P49792) | -0.154 | -0.371 |  | 
RICTOR C68 (UniProt Q6R327) | -0.166 | -0.0731 |  | 
RASSF2 C251 (UniProt P50749) | 0.000576 | 0.169 |  | 
RIF1 C2126 (UniProt Q5UIP0) | -0.315 | 0.0106 |  | 
RALBP1 C4 (UniProt Q15311) | -0.299 | 0.0175 |  | 
RIMS4 C164 | 0.351 | -0.214 |  | 
RASA2 C405 (UniProt Q15283) | -0.0323 | -0.0132 |  | 
RIOK1 C361 (UniProt Q9BRS2) | 0.202 | -0.226 |  | 
RBM28 C97 (UniProt Q9NW13) | -0.0506 | 0.293 |  | 
RAP1GDS1 C117 (UniProt P52306) | 0.296 | 0.226 |  | 
RFC1 C665 (UniProt P35251) | 0.057 | 0.248 |  | 
RELL1 C88 (UniProt Q8IUW5) | -0.0195 | -0.181 |  | 
RAI14 C584 (UniProt Q9P0K7) | -0.0408 | -0.276 |  | 
RANBP2 C815 (UniProt P49792) | 0.293 | -0.0835 |  | 
RANBP2 C1243 (UniProt P49792) | -0.276 | -0.0787 |  | 
RLF C663 (UniProt Q13129) | 0.0857 | -0.0166 |  | 
RB1CC1 C81 (UniProt Q8TDY2) | -0.0862 | -0.0907 |  | 
RILPL1 C47 (UniProt Q5EBL4) | 0.0308 | -0.00742 |  | 
RARS2 C311 (UniProt Q5T160) | -0.147 | -0.224 |  | 
RBM45 C90 (UniProt Q8IUH3) | -0.229 | -0.0327 |  | 
RBL2 C368 (UniProt Q08999) | 0.124 | 0.182 |  | 
RBM28 C33 (UniProt Q9NW13) | -0.326 | -0.173 |  | 
RB1 C278 (UniProt P06400) | -0.255 | -0.34 |  | 

Target | log2 mean competition ratio ([1]; 50 µM) | log2 mean competition ratio ([1]; 200 µM) | log2 mean competition ratio ([2]; 50 µM) | log2 mean competition ratio ([2]; 200 µM)
RBBP8 C567 (UniProt Q99708) | 0.531 | -0.151 |  | 
RBM26 C294 (UniProt Q5T8P6) | -0.0218 | 0.221 |  | 
RB1CC1 C572 (UniProt Q8TDY2) | -0.0187 | 0.156 |  | 
RANBP10 C501 (UniProt Q6VN20) | 0.653 | 0.236 |  | 
RBM28 C71 (UniProt Q9NW13) | 0.0177 | -0.0399 |  | 
RALGAPA2 C495 (UniProt Q2PPJ7) | -0.121 | -0.178 |  | 
RBM20 C1024 (UniProt Q5T481) | 0.192 | 0.284 |  | 
RANBP2 C3122 (UniProt P49792) | -0.488 | -0.138 |  | 
RANBP2 C2710 (UniProt P49792) | -0.0601 | 0.0685 |  | 
RB1 C438 (UniProt P06400) | -0.115 | -0.0429 |  | 
RIPK2 C414 (UniProt O43353) | -0.15 | -0.0378 |  | 
RENBP C249 (UniProt P51606) | 0.022 | -0.194 |  | 
RMI1 C268 (UniProt Q9H9A7) | 0.162 | -0.312 |  | 
RBM41 C136 (UniProt Q96IZ5) | 0.133 | 0.225 |  | 
RBPJ C180 (UniProt Q06330) | -0.0597 | -0.135 | -0.0912 | -0.0983
RAP1GAP2 C584 (UniProt Q684P5) | -0.123 | -0.176 |  | 
RLF C1609 (UniProt Q13129) | -0.19 | 0.16 |  | 
RFC4 C141 (UniProt P35249) | -0.219 | -0.116 |  | 
RANGAP1 C82 (UniProt P46060) | 0.0344 | 0.497 |  | 
RBBP7 C166 | -0.0957 | 0.152 | -0.288 | -0.0621
RGL1 C289 | -0.0344 | 0.382 | -0.467 | -0.476
RFC3 C303 (UniProt P40938) | -0.0232 | 0.296 |  | 
RAP1B C118 | -0.265 | 0.276 |  | 

34 successive entries already listed:
Target | log2 mean competition ratio ([1]; 50 µM) | log2 mean competition ratio ([1]; 200 µM) | log2 mean competition ratio ([2]; 50 µM) | log2 mean competition ratio ([2]; 200 µM)
RAI14 C584 (UniProt Q9P0K7) | -0.0408 | -0.276 |  | 
RANBP2 C815 (UniProt P49792) | 0.293 | -0.0835 |  | 
RANBP2 C1243 (UniProt P49792) | -0.276 | -0.0787 |  | 
RLF C663 (UniProt Q13129) | 0.0857 | -0.0166 |  | 
RB1CC1 C81 (UniProt Q8TDY2) | -0.0862 | -0.0907 |  | 
RILPL1 C47 (UniProt Q5EBL4) | 0.0308 | -0.00742 |  | 
RARS2 C311 (UniProt Q5T160) | -0.147 | -0.224 |  | 
RBM45 C90 (UniProt Q8IUH3) | -0.229 | -0.0327 |  | 
RBL2 C368 (UniProt Q08999) | 0.124 | 0.182 |  | 
RBM28 C33 (UniProt Q9NW13) | -0.326 | -0.173 |  | 
RB1 C278 (UniProt P06400) | -0.255 | -0.34 |  | 
RBBP8 C567 (UniProt Q99708) | 0.531 | -0.151 |  | 
RBM26 C294 (UniProt Q5T8P6) | -0.0218 | 0.221 |  | 
RB1CC1 C572 (UniProt Q8TDY2) | -0.0187 | 0.156 |  | 
RANBP10 C501 (UniProt Q6VN20) | 0.653 | 0.236 |  | 
RBM28 C71 (UniProt Q9NW13) | 0.0177 | -0.0399 |  | 
RALGAPA2 C495 (UniProt Q2PPJ7) | -0.121 | -0.178 |  | 
RBM20 C1024 (UniProt Q5T481) | 0.192 | 0.284 |  | 
RANBP2 C3122 (UniProt P49792) | -0.488 | -0.138 |  | 
RANBP2 C2710 (UniProt P49792) | -0.0601 | 0.0685 |  | 
RB1 C438 (UniProt P06400) | -0.115 | -0.0429 |  | 
RIPK2 C414 (UniProt O43353) | -0.15 | -0.0378 |  | 
RENBP C249 (UniProt P51606) | 0.022 | -0.194 |  | 
RMI1 C268 (UniProt Q9H9A7) | 0.162 | -0.312 |  | 
RBM41 C136 (UniProt Q96IZ5) | 0.133 | 0.225 |  | 
RBPJ C180 (UniProt Q06330) | -0.0597 | -0.135 | -0.0912 | -0.0983
RAP1GAP2 C584 (UniProt Q684P5) | -0.123 | -0.176 |  | 
RLF C1609 (UniProt Q13129) | -0.19 | 0.16 |  | 
RFC4 C141 (UniProt P35249) | -0.219 | -0.116 |  | 
RANGAP1 C82 (UniProt P46060) | 0.0344 | 0.497 |  | 
RBBP7 C166 | -0.0957 | 0.152 | -0.288 | -0.0621
RGL1 C289 | -0.0344 | 0.382 | -0.467 | -0.476
RFC3 C303 (UniProt P40938) | -0.0232 | 0.296 |  | 
RAP1B C118 | -0.265 | 0.276 |  | 

(cont.)

Target | log2 mean competition ratio ([1]; 50 µM) | log2 mean competition ratio ([1]; 200 µM) | log2 mean competition ratio ([2]; 50 µM) | log2 mean competition ratio ([2]; 200 µM)
RGL2 C508 (UniProt O15211) | -0.169 | -0.204 |  | 
RALGAPB C278 (UniProt Q86X10) | 0.326 | 0.183 |  | 
RBM4 C89 (UniProt Q9BWF3) | -0.0444 | 0.00642 | 0.164 | -0.0678
RB1CC1 C925 (UniProt Q8TDY2) | -0.0309 | -0.256 |  | -0.224
RCC1 C93 (UniProt P18754) | -0.215 | -0.142 |  | 
RNASEH1 C191 (UniProt O60930) | 0.216 | 0.124 |  | 
RICTOR C218 (UniProt Q6R327) | 0.0502 | -0.474 |  | 
RDH13 C30 (UniProt Q8NBN7) | 0.00102 | -0.173 |  | 
RIF1 C1155 (UniProt Q5UIP0) | -0.0175 | 0.0316 |  | 
RBFA C136 (UniProt Q8N0V3) | -0.0342 | -0.0395 | 0.167 | 0.0415
RCL1 C171 | 0.392 | 0.345 |  | 
RIPOR1 C925 (UniProt Q6ZS17) | 0.609 | 0.562 |  | 
RIC8A C341 (UniProt Q9NPQ8) | 0.22 | 0.285 | -0.176 | 0.227
RANBP2 C2982 (UniProt P49792) | 0.0105 | -0.403 |  | 
RECQL5 C457 (UniProt O94762) | -0.0255 | 0.19 |  | 
RECQL5 C427 (UniProt O94762) | 0.0566 | -0.0448 | 0.0836 | 0.0227
RASSF1 C341 (UniProt Q9NS23) | 0.249 | -0.136 | 0.175 | -0.0277
RDH14 C306 (UniProt Q9HBH5) | 0.164 | 0.0354 |  | 
RMDN3 C128 (UniProt Q96TC7) | 0.031 | -0.00177 | -0.162 | 0.0392
RANBP3 C228 (UniProt Q9H6Z4) | -0.223 | 0.14 |  | 
RARS2 C74 (UniProt Q5T160) | -0.0301 | -0.143 | 0.0519 | -0.181
RDH10 C272 (UniProt Q8IZV5) | -0.083 | 0.344 |  | 
RBM47 C273 | -0.322 | -0.182 | -0.167 | -0.233

Target | log2 mean competition ratio ([1]; 50 µM) | log2 mean competition ratio ([1]; 200 µM) | log2 mean competition ratio ([2]; 50 µM) | log2 mean competition ratio ([2]; 200 µM)
RAVER2 C82 (UniProt Q9HCJ3) | -0.304 | -0.0207 |  | 
RANBP6 C1065 (UniProt O60518) | -0.296 | 0.0017 |  | 
RHBDD3 C208 (UniProt Q9Y3P4) | 0.000933 | 0.135 | 0.267 | 0.155
RAI14 C68 (UniProt Q9P0K7) | -0.234 | -0.359 |  | 
RAPGEF1 C817 (UniProt Q13905) | 0.186 | 0.178 | 0.0862 | 0.19
RLF C227 (UniProt Q13129) | 0.164 | 0.164 | 0.429 | 0.0825
RING1 C279 (UniProt Q06587) | 0.0535 | -0.0793 | -0.0511 | -0.0627
RFC1 C118 (UniProt P35251) | -0.392 | -0.174 | 0.108 | 0.268
RBFA C338 (UniProt Q8N0V3) | -0.165 | 0.252 | -0.331 | 0.419
RANGAP1 C152 (UniProt P46060) | -0.0763 | -0.0403 | -0.198 | -0.0458
RECQL C606 (UniProt P46063) | 0.238 | 0.157 | 0.185 | -0.301
RBM12B C919 (UniProt Q8IXT5) | -0.045 | 0.0608 | -0.0424 | 0.138
RAP1GAP C644 (UniProt P47736) | -0.173 | 0.153 | -0.0108 | 0.204
RASSF4 C145 | -0.13 | 0.299 | -0.0297 | 0.283
RECQL5 C532 (UniProt O94762) | -0.329 | -0.293 | -0.147 | -0.274
RBL1 C918 (UniProt P28749) | -0.289 | 0.18 | -0.449 | -0.102
RIOK1 C264 (UniProt Q9BRS2) | 0.0343 | -0.0529 | 0.0902 | -0.0349
RALGAPB C242 (UniProt Q86X10) | 0.195 | -0.349 | 0.871 | -0.172
RANBP2 C141 (UniProt P49792) | 0.0727 | -0.0993 | -0.386 | 0.0795
RANBP6 C792 (UniProt O60518) | 0.0604 | 0.193 | -0.212 | 0.191
RMC1 C11 (UniProt Q96DM3) | -0.0285 | 0.205 | -0.447 | -0.0939
RFLNB C186 (UniProt Q8N5W9) | 0.662 | 0.383 | 0.492 | 0.221
RICTOR C1576 (UniProt Q6R327) | -0.231 | -0.173 | -0.0759 | 0.017

Target | log2 mean competition ratio ([1]; 50 µM) | log2 mean competition ratio ([1]; 200 µM) | log2 mean competition ratio ([2]; 50 µM) | log2 mean competition ratio ([2]; 200 µM)
RNASEH2B C7 | -0.211 | -0.00111 | 0.265 | 0.279
REST C945 (UniProt Q13127) | -0.351 | 0.326 | -0.284 | 0.178
RASA1 C876 (UniProt P20936) | -0.0537 | -0.331 | 0.484 | -0.113
RLF C1049 (UniProt Q13129) | 0.0649 | 0.18 | -0.151 | -0.219
RAP1GDS1 C454 (UniProt P52306) | -0.0778 | -0.307 | 0.238 | -0.242
RC3H1 C1049 (UniProt Q5TC82) | -0.266 | -0.232 | -0.035 | -0.149
RAE1 C106 (UniProt P78406) | -0.0694 | -0.145 | 0.305 | -0.147
REXO4 C248 (UniProt Q9GZR2) | 0.0898 | -0.0367 | -0.0926 | -0.0426
RBM4 C162 (UniProt Q9BWF3) | -0.0855 | -0.0239 | -0.273 | -0.0456
RIF1 C880 (UniProt Q5UIP0) | 0.129 | 0.125 | 0.382 | 0.0209
RB1CC1 C783 (UniProt Q8TDY2) | 0.0552 | 0.163 | 0.014 | 0.133
RBM4 C31 (UniProt Q9BWF3) | -0.0279 | -0.221 | 0.923 | 0.033
RERE C395 (UniProt Q9P2R6) | -0.0963 | 0.284 | -0.184 | 0.26
RIMOC1 C51 | -0.0842 | 0.177 | 0.196 | 0.196
RIPK2 C286 (UniProt O43353) | -0.239 | 0.455 | -0.614 | 0.305
RASA1 C828 (UniProt P20936) | -0.183 | 0.222 | -0.304 | 0.0684
RBBP8 C92 (UniProt Q99708) | -0.0604 | -0.131 | -0.201 | -0.0461
RANBP6 C980 (UniProt O60518) | -0.227 | -0.0464 | -0.113 | 0.0225
RIC1 C415 (UniProt Q4ADV7) | 0.0479 | -0.0494 | 1.53 | -0.179
RIOK2 C493 (UniProt Q9BVS4) | 0.282 | -0.369 | 0.299 | -0.33
